Publication PMC5739749
Results are given in words; binding and its absence hold for the method and conditions named. Binding seen in cells or lysates may run through a third protein. Binding can be weak; no strength is given. For some assays here: Where a sequence is shown, tags or fusion partners need not be part of it.

By UniProt entry, the sequences of proteins in these tests, tags left out.
UniProt P54098: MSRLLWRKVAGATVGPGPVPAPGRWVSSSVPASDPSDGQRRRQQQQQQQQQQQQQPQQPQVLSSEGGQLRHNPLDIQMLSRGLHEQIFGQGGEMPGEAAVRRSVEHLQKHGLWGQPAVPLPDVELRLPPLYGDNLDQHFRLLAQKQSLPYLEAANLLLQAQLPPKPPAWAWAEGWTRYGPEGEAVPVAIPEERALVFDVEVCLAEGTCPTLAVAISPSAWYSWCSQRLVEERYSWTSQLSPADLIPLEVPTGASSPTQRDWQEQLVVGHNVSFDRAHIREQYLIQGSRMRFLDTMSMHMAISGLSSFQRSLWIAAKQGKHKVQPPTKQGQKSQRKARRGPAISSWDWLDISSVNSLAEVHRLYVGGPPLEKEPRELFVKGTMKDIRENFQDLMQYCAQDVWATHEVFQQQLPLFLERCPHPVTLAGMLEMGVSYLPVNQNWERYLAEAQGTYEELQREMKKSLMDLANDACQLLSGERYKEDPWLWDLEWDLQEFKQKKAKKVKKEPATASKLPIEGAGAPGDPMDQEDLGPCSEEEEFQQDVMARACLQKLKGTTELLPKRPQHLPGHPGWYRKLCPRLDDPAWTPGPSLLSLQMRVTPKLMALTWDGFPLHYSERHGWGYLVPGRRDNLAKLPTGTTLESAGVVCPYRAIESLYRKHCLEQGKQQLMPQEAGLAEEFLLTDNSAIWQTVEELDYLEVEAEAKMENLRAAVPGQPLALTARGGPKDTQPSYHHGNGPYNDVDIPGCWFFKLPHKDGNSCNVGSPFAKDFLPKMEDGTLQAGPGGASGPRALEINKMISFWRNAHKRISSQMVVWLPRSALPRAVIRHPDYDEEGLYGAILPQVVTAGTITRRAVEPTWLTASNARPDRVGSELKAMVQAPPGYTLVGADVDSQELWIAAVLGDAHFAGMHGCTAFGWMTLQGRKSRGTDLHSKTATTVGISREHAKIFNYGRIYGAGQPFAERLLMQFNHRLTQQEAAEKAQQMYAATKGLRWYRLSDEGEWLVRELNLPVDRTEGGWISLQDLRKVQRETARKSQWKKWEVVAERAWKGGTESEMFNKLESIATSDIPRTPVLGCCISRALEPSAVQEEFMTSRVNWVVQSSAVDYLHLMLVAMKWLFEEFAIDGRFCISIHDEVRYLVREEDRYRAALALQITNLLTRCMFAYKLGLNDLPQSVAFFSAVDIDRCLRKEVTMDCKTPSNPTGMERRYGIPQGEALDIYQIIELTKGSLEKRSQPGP

Assays:
[1] = molecular target: Myc-tagged TTC3ΔTPR (deletion of the TPR motifs) (human) (UniProt P53804); assay: co-IP; 293T cells co-transfected; lysed in RIPA buffer; TTC3 immunoprecipitated by Myc antibody (9E10), POLG or Hsp70 by Flag antibody (M2); Protein G beads, 4°C; immunoblot
[2] = molecular target: T1, Myc-TTC3(1∼650aa) (human) (UniProt P53804); assay: as above
T1 sequence: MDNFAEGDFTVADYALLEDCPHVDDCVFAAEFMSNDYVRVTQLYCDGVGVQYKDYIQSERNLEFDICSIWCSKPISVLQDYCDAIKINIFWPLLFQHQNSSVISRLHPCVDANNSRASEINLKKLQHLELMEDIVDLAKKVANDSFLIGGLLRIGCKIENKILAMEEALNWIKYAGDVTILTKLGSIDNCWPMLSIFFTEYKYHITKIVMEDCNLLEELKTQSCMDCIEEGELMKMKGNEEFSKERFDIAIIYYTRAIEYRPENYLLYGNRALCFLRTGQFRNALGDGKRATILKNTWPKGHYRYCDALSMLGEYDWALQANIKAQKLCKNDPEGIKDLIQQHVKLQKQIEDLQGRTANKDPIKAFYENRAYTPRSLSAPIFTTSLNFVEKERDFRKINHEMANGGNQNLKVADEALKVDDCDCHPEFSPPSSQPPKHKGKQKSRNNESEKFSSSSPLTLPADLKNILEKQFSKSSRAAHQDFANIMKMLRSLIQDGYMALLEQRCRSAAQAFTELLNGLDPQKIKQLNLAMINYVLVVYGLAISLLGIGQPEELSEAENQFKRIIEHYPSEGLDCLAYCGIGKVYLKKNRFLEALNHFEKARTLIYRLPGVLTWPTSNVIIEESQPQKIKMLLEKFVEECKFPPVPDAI

binding [1]	binding [2]	Substance
binds	–	3xFlag-tagged full-length POLG (p3xFLAG-CMV10) (from UniProt P54098 1-1239)
–	binds	Flag-Hsp70
